Source: publication PMC11742405
No constants are given. Whether binding was seen depends on the method and setting. In cells and extracts the contact can be indirect. Binding can be weak; no strength is given.

Biological target: PRR33-VN (Venus N-term) (mouse)
Experiment: split reporter; BiFC-Venus: PRR33-VN with VC fusions transfected into 293T cells, fluorescence examined about 24 h later in living cells

binding: binds
B1: ZYX-VC (Venus C-term) (protein, UniProt Q62523 1-564)
chain: MAAPRPPPAISVSVSAPAFYAPQKKFAPVVAPKPKVNPFRPGDSEPPVAAGAQRAQMGRVGEIPPPPPEDFPLPPPPLIGEGDDSEGALGGAFPPPPPPMIEEPFPPAPLEEDIFPSPPPPLEEEGGPEAPTQLPPQPREKVCSIDLEIDSLSSLLDDMTKNDPFKARVSSGYVPPPVATPFVPKPSTKPAPGGTAPLPPWKTPSSSQPPPQPQAKPQVQLHVQPQAKPHVQPQPVSSANTQPRGPLSQAPTPAPKFAPVAPKFTPVVSKFSPGAPSGPGPQPNQKMVPPDAPSSVSTGSPQPPSFTYAQQKEKPLVQEKQHPQPPPAQNQNQVRSPGGPGPLTLKEVEELEQLTQQLMQDMEHPQRQSVAVNESCGKCNQPLARAQPAVRALGQLFHITCFTCHQCQQQLQGQQFYSLEGAPYCEGCYTDTLEKCNTCGQPITDRMLRATGKAYHPQCFTCVVCACPLEGTSFIVDQANQPHCVPDYHKQYAPRCSVCSEPIMPEPGRDETVRVVALDKNFHMKCYKCEDCGKPLSIEADDNGCFPLDGHVLCRKCHSARAQT
